Several values for one entry are separate records, joined by “and”; a condition that tells them apart may be missing. Equal values may be shown once. This is one part of the list. Repeats in this data set agree poorly, so a single value says little.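 The human kidney-derived cells carry a stably integrated construct of eight TEAD-binding elements driving luciferase, read by luminescence in a drug-repurposing library screen. A compound counts as a hit when its signal is more than five robust Z scores above the plate mean.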
Tested on: HEK293A TEAD-LUC reporter
Test: TEAD-luciferase reporter activity (YAP activation), robust Z score vs plate; higher = stronger YAP/TEAD activation
Conditions: 24 h

Question: For `O=C1NCCCN1CCCNCC1CCc2ccccc2O1` (stereo not drawn), which TEAD-luciferase reporter activity (compound concentration: 200 nM) is on record?
Answer: inactive: -0.528

Question: What about the TEAD-luciferase reporter activity (compound concentration: 2 uM) of the same molecule?
Answer: inactive: -0.496

Question: And the TEAD-luciferase reporter activity (compound concentration: 10 uM)?
Answer: inactive: -0.49

Question: Which TEAD-luciferase reporter activity (compound concentration: 200 nM) does the source give for `CNc1nc2c(Cc3cccnc3)c(C)c(O)c(C)c2s1` here?
Answer: inactive: 1.35

Question: And the TEAD-luciferase reporter activity (compound concentration: 2 uM)?
Answer: inactive: 0.00484

Question: What about the TEAD-luciferase reporter activity (compound concentration: 10 uM) of the same molecule?
Answer: inactive: 1.48

Question: With `CCOCc1nc2c(N)nc3ccccc3c2n1CC(C)(C)O` [resiquimod] as the molecule, how does the TEAD-luciferase reporter activity (compound concentration: 200 nM) read?
Answer: inactive: -0.662

Question: What about the TEAD-luciferase reporter activity (compound concentration: 2 uM) of the same molecule?
Answer: inactive: -0.728

Question: And the TEAD-luciferase reporter activity (compound concentration: 10 uM)?
Answer: inactive: -1.04

Question: `COc1cc(/C=C2\CCCN([C@@H](C)c3ccc(F)cc3)C2=O)ccc1-n1cnc(C)c1` was tested. Which TEAD-luciferase reporter activity (compound concentration: 200 nM) did it give?
Answer: inactive: -0.721

Question: And the TEAD-luciferase reporter activity (compound concentration: 2 uM)?
Answer: inactive: 1.37

Question: What about the TEAD-luciferase reporter activity (compound concentration: 10 uM) of the same molecule?
Answer: inactive: -0.871

Question: With `CC(=O)O[C@]1(C(C)=O)CC[C@H]2[C@@H]3C=C(Cl)C4=CC(=O)[C@@H]5C[C@@H]5[C@]4(C)[C@H]3CC[C@@]21C` [cyproterone acetate, Barr] as the molecule, how does the TEAD-luciferase reporter activity (compound concentration: 200 nM) read?
Answer: inactive: 1.3

Question: And the TEAD-luciferase reporter activity (compound concentration: 2 uM)?
Answer: inactive: -0.411

Question: What about the TEAD-luciferase reporter activity (compound concentration: 10 uM) of the same molecule?
Answer: inactive: -0.88

Question: `CO[C@]1(C(=O)N[C@@H]2CC[C@@]3(C)[C@@H](CC[C@@H]4[C@@H]3CC[C@]3(C)[C@@H]([C@H](C)CCCC(C)C)CC[C@@H]43)C2)C[C@H](O)[C@@H](NC(C)=O)C([C@H](O)[C@H](O)CO)O1` (stereo partly drawn) [coleneuramide] was tested. Which TEAD-luciferase reporter activity (compound concentration: 200 nM) did it give?
Answer: inactive: -1.22

Question: And the TEAD-luciferase reporter activity (compound concentration: 2 uM)?
Answer: inactive: -1.5

Question: What about the TEAD-luciferase reporter activity (compound concentration: 10 uM) of the same molecule?
Answer: inactive: 0.907

Question: `NS(=O)(=O)c1ccc(Oc2ccc(NC(=O)N[C@H]3[C@@H]4COc5c(F)ccc(F)c5[C@@H]43)nc2)cc1` was tested. Which TEAD-luciferase reporter activity (compound concentration: 200 nM) did it give?
Answer: inactive: -1.65

Question: What about the TEAD-luciferase reporter activity (compound concentration: 2 uM) of the same molecule?
Answer: inactive: 0.398

Question: What about the TEAD-luciferase reporter activity (compound concentration: 10 uM) of the same molecule?
Answer: inactive: -1.44

Question: What does the source list for `O=C(Nc1cc(Cl)cc(Cl)c1O)c1c(O)c(Cl)cc(Cl)c1Cl`?
Answer: TEAD-luciferase reporter activity (compound concentration: 200 nM): inactive: -2.78; TEAD-luciferase reporter activity (compound concentration: 2 uM): inactive: -1.42; TEAD-luciferase reporter activity (compound concentration: 10 uM): inactive: 1.45

Question: Which TEAD-luciferase reporter activity (compound concentration: 200 nM) does the source give for `COC(=O)c1cccc(CCN(C)Cc2ccccc2)c1` here?
Answer: inactive: -0.646

Question: And the TEAD-luciferase reporter activity (compound concentration: 2 uM)?
Answer: inactive: 0.158

Question: What about the TEAD-luciferase reporter activity (compound concentration: 10 uM) of the same molecule?
Answer: inactive: -0.347

Question: With `Cc1ncc([N+](=O)[O-])n1CCCN1CCNCC1` as the molecule, how does the TEAD-luciferase reporter activity (compound concentration: 200 nM) read?
Answer: inactive: -0.808

Question: And the TEAD-luciferase reporter activity (compound concentration: 2 uM)?
Answer: inactive: -0.533

Question: And the TEAD-luciferase reporter activity (compound concentration: 10 uM)?
Answer: inactive: 0.743

Question: For `ClCCCN1CCN(c2ccc3ccccc3n2)CC1`, which TEAD-luciferase reporter activity (compound concentration: 200 nM) is on record?
Answer: inactive: 1.08

Question: What about the TEAD-luciferase reporter activity (compound concentration: 2 uM) of the same molecule?
Answer: inactive: -0.535

Question: And the TEAD-luciferase reporter activity (compound concentration: 10 uM)?
Answer: inactive: 2.33

Question: With `O=C(Nc1ccc(OC(F)(F)Cl)cc1)c1cnc(N2CC[C@@H](O)C2)c(-c2cc[nH]n2)c1` as the molecule, how does the TEAD-luciferase reporter activity (compound concentration: 200 nM) read?
Answer: inactive: 1.46

Question: What about the TEAD-luciferase reporter activity (compound concentration: 2 uM) of the same molecule?
Answer: inactive: -0.379

Question: And the TEAD-luciferase reporter activity (compound concentration: 10 uM)?
Answer: inactive: 0.655

Question: How did the TEAD-luciferase reporter activity (compound concentration: 200 nM) turn out when `COc1ccc(CC(=O)N2Cc3ccccc3CC23CCCN(C(C)=O)C3)cc1` (stereo not drawn) was run?
Answer: inactive: -0.866

Question: What about the TEAD-luciferase reporter activity (compound concentration: 10 uM) of the same molecule?
Answer: inactive: -0.87

Question: `CC(=O)N[C@@H](CCC(=O)C=[N+]=[N-])C(=O)O` was tested. Which TEAD-luciferase reporter activity (compound concentration: 2 uM) did it give?
Answer: inactive: 0.0157

Question: What does the source list for `CC(C)C[C@@H]1NC(=O)[C@H](Cc2ccccc2)NC(=O)[C@H](CCN)NC(=O)[C@@H](NC(=O)[C@H](CCN)NC(=O)[C@@H](NC(=O)[C@H](CCN)NC(=O)Nc2ccccc2Cl)[C@@H](C)O)CCNC(=O)[C@H]([C@@H](C)O)NC(=O)[C@H](CCN)NC(=O)[C@H](CCN)NC1=O`?
Answer: TEAD-luciferase reporter activity (compound concentration: 200 nM): inactive: -0.992; TEAD-luciferase reporter activity (compound concentration: 2 uM): inactive: -0.863; TEAD-luciferase reporter activity (compound concentration: 10 uM): inactive: 0.242

Question: How did the TEAD-luciferase reporter activity (compound concentration: 200 nM) turn out when `COC(=O)OC[C@H]1O[C@@H](Oc2cc(C)cc(O)c2C(=O)CCc2ccc3occc3c2)[C@H](O)[C@@H](O)[C@@H]1O` was run?
Answer: inactive: 0.84

Question: What about the TEAD-luciferase reporter activity (compound concentration: 2 uM) of the same molecule?
Answer: inactive: -0.952

Question: What about the TEAD-luciferase reporter activity (compound concentration: 10 uM) of the same molecule?
Answer: inactive: 0.634

Question: How did the TEAD-luciferase reporter activity (compound concentration: 200 nM) turn out when `COC(=O)N1C[C@@H](c2ccc(OC)c(OC3CCCC3)c2)[C@](C)(C(C)=O)C1` was run?
Answer: inactive: -1.05

Question: And the TEAD-luciferase reporter activity (compound concentration: 2 uM)?
Answer: inactive: -0.687 and inactive: -1.02

Question: What about the TEAD-luciferase reporter activity (compound concentration: 10 uM) of the same molecule?
Answer: inactive: 0.16

Question: Which TEAD-luciferase reporter activity (compound concentration: 200 nM) does the source give for `C=C(C)CNc1ccc(C(C)C(=O)O)cc1` (stereo not drawn) [alminoprofen] here?
Answer: inactive: 0.44

Question: And the TEAD-luciferase reporter activity (compound concentration: 2 uM)?
Answer: inactive: 2.33

Question: What about the TEAD-luciferase reporter activity (compound concentration: 10 uM) of the same molecule?
Answer: inactive: 0.43

Question: Which results are given for `CCc1nn2c(-c3c(OC)cc(COC)cc3OC)cccc2c1N(CC1CCOCC1)CC1CC1`?
Answer: TEAD-luciferase reporter activity (compound concentration: 200 nM): active: 5.07; TEAD-luciferase reporter activity (compound concentration: 2 uM): inactive: -0.769; TEAD-luciferase reporter activity (compound concentration: 10 uM): inactive: 0.373

Question: With `CC[O-]->[Ti]12(<-[O]=C(C)[CH-]C(=[O]->1)c1ccccc1)(<-[O]=C(C)[CH-]C(=[O]->2)c1ccccc1)<-[O-]CC` [budotitane] as the molecule, how does the TEAD-luciferase reporter activity (compound concentration: 200 nM) read?
Answer: inactive: -1.24

Question: And the TEAD-luciferase reporter activity (compound concentration: 2 uM)?
Answer: inactive: -0.729

Question: And the TEAD-luciferase reporter activity (compound concentration: 10 uM)?
Answer: inactive: 1.58

Question: For `O=C([O-])[O-]` [lithium carbonate], which TEAD-luciferase reporter activity (compound concentration: 2 uM) is on record?
Answer: inactive: 1.88

Question: Which TEAD-luciferase reporter activity (compound concentration: 200 nM) does the source give for `O=C([O-])[O-]` [carbonic acid] here?
Answer: inactive: 0.00772

Question: What about the TEAD-luciferase reporter activity (compound concentration: 10 uM) of the same molecule?
Answer: inactive: 2.11

Question: With `Oc1nc(O)c2nc3ccccc3nc2n1` as the molecule, how does the TEAD-luciferase reporter activity (compound concentration: 200 nM) read?
Answer: inactive: -0.489

Question: And the TEAD-luciferase reporter activity (compound concentration: 2 uM)?
Answer: inactive: 0.457

Question: What about the TEAD-luciferase reporter activity (compound concentration: 10 uM) of the same molecule?
Answer: active: 7.45

Question: `COC(=O)C1=C(C)NC(C)=C(C(=O)OC/C=C/c2ccccc2)C1c1cccc([N+](=O)[O-])c1` (stereo not drawn) [Pranidipine] was tested. Which TEAD-luciferase reporter activity (compound concentration: 200 nM) did it give?
Answer: inactive: -1.04

Question: What about the TEAD-luciferase reporter activity (compound concentration: 2 uM) of the same molecule?
Answer: inactive: -2.03

Question: And the TEAD-luciferase reporter activity (compound concentration: 10 uM)?
Answer: inactive: 3.02

Question: Which results are given for `CC(C)(C)NCC(O)COc1cc(Cl)ccc1Cl` (stereo not drawn) [cloranolol]?
Answer: TEAD-luciferase reporter activity (compound concentration: 200 nM): inactive: -1.1; TEAD-luciferase reporter activity (compound concentration: 2 uM): inactive: -0.282; TEAD-luciferase reporter activity (compound concentration: 10 uM): inactive: 3.23

Question: `COc1ccc(CC(=O)N(C)C2CCc3ccccc3C2)cc1` (stereo not drawn) was tested. Which TEAD-luciferase reporter activity (compound concentration: 200 nM) did it give?
Answer: inactive: -0.0826

Question: What does the source list for `CN(C(=O)C(Cc1ccc(C(=N)NN)cc1)NS(=O)(=O)c1ccc2ccccc2c1)C1CCCC1` (stereo not drawn)?
Answer: TEAD-luciferase reporter activity (compound concentration: 200 nM): inactive: -0.296; TEAD-luciferase reporter activity (compound concentration: 2 uM): inactive: 0.519; TEAD-luciferase reporter activity (compound concentration: 10 uM): inactive: 1.96

Question: What does the source list for `COc1ccc(C(=O)N2CCN(CCn3c(C(=O)N(C)c4cc(C)cc(C)n4)nc4ccccc43)CC2)cc1OC`?
Answer: TEAD-luciferase reporter activity (compound concentration: 200 nM): inactive: 0.496; TEAD-luciferase reporter activity (compound concentration: 2 uM): inactive: -0.488; TEAD-luciferase reporter activity (compound concentration: 10 uM): inactive: -1.52

Question: With `O=C(c1ccc(F)cc1)C1CCN(CCn2c(=O)nc3n(c2=O)CCCC3)CC1` as the molecule, how does the TEAD-luciferase reporter activity (compound concentration: 200 nM) read?
Answer: inactive: -1.16

Question: What about the TEAD-luciferase reporter activity (compound concentration: 2 uM) of the same molecule?
Answer: inactive: -0.22

Question: And the TEAD-luciferase reporter activity (compound concentration: 10 uM)?
Answer: inactive: 0.00364

Question: Which TEAD-luciferase reporter activity (compound concentration: 200 nM) does the source give for `CC[C@H]1OC(=O)C[C@@H](O)[C@H](C)[C@@H](O[C@@H]2O[C@H](C)[C@@H](O[C@H]3C[C@@](C)(O)[C@@H](O)[C@H](C)O3)[C@H](N(C)C)[C@H]2O)[C@@H](CC=O)C[C@@H](C)C(=O)/C=C/C(C)=C/[C@@H]1CO[C@@H]1O[C@H](C)[C@@H](O)[C@@H](OC)[C@H]1OC` [Tylosin] here?
Answer: inactive: 0.0947

Question: And the TEAD-luciferase reporter activity (compound concentration: 2 uM)?
Answer: inactive: -1.03

Question: And the TEAD-luciferase reporter activity (compound concentration: 10 uM)?
Answer: inactive: -1.37

Question: With `Cc1c(N)cccc1Cn1ccc(OCCc2cccs2)cc1=O` as the molecule, how does the TEAD-luciferase reporter activity (compound concentration: 200 nM) read?
Answer: inactive: 1.16

Question: And the TEAD-luciferase reporter activity (compound concentration: 2 uM)?
Answer: inactive: 0.488

Question: And the TEAD-luciferase reporter activity (compound concentration: 10 uM)?
Answer: inactive: 0.0316

Question: `CCCC1O[C@@H]2C[C@H]3[C@@H]4CCC5=CC(=O)C=C[C@]5(C)[C@H]4[C@@H](O)C[C@]3(C)[C@]2(C(=O)COC(=O)c2ccc(CO[N+](=O)[O-])cc2)O1` (stereo partly drawn) [NO-budesonide] was tested. Which TEAD-luciferase reporter activity (compound concentration: 200 nM) did it give?
Answer: inactive: 0.475

Question: And the TEAD-luciferase reporter activity (compound concentration: 2 uM)?
Answer: inactive: 0.825

Question: What about the TEAD-luciferase reporter activity (compound concentration: 10 uM) of the same molecule?
Answer: inactive: -0.113
